From the supplement of paper PMC12823440, “Inhibitors supercharge kinase turnover through native proteolytic circuits” (Nature, 2025)
Counter-ions that a name gives are not always drawn. The list shows a part of the results. Hit calls seldom repeat between salt and free forms of one compound.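 Kinases, fused to nanoluciferase, were expressed in K562 cells; luminescence was measured every 4 h from 2 to 18 h as percent of control (DMSO = 100%, positive control = 0%). A time point is decreased if signal falls significantly (2 sigma). Hits were called by the authors by a rule that is not shown; the count of time points alone does not decide it.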

By UniProt entry, the sequences of proteins in these tests, tags left out. Where a name states a change or a piece, a line headed by the entry shows the natural chain unless it says otherwise.
UniProt P42356, whole entry, looked up: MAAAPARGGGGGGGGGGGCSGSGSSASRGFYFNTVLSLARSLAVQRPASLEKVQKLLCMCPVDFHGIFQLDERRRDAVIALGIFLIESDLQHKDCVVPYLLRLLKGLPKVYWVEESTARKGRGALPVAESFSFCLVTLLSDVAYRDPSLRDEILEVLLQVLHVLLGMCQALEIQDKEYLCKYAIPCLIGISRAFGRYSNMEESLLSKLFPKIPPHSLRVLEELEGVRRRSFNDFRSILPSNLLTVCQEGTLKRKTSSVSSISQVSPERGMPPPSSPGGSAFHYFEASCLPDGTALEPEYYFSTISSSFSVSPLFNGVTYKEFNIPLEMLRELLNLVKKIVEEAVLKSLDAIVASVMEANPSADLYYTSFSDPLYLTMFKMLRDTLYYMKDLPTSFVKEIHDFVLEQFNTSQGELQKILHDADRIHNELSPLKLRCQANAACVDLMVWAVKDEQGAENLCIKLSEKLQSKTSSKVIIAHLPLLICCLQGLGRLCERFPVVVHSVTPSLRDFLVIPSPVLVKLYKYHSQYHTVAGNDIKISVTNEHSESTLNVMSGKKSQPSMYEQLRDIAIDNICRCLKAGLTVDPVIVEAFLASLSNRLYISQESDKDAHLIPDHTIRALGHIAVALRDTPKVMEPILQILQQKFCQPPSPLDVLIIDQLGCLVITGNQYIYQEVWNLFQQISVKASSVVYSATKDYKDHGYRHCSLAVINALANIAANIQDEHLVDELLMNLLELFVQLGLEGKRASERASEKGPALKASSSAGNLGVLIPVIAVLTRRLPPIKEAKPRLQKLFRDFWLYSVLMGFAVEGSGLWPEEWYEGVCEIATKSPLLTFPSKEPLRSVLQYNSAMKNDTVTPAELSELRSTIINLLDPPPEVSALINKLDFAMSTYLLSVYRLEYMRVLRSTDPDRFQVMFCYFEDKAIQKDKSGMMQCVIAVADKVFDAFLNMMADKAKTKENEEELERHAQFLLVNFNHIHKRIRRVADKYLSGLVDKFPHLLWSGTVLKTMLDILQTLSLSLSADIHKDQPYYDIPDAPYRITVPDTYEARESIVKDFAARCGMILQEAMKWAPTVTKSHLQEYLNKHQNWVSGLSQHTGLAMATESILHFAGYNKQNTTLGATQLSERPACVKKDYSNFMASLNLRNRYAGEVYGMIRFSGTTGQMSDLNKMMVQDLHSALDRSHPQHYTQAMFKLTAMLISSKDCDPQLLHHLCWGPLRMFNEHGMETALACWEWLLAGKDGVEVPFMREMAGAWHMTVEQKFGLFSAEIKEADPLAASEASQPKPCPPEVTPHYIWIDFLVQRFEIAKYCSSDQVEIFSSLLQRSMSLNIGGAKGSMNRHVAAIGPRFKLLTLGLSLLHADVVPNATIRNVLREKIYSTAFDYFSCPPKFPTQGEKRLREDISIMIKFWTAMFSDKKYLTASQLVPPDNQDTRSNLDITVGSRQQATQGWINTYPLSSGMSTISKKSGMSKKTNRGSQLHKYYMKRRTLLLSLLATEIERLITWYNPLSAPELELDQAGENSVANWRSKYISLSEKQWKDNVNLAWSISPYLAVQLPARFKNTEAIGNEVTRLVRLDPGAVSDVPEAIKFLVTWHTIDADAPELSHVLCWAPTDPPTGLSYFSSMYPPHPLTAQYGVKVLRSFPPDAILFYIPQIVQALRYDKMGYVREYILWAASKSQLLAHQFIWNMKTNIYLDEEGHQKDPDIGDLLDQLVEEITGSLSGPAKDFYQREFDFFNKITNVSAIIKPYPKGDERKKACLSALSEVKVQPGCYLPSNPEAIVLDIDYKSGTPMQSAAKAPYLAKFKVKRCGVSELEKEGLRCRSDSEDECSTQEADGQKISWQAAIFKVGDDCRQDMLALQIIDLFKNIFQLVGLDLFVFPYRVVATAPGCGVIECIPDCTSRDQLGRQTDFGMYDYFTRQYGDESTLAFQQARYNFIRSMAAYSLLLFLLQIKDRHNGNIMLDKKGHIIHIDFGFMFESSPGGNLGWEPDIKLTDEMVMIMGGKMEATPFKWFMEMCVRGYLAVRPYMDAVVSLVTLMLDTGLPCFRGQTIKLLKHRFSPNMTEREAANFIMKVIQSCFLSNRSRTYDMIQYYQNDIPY
UniProt Q14289, whole entry, looked up: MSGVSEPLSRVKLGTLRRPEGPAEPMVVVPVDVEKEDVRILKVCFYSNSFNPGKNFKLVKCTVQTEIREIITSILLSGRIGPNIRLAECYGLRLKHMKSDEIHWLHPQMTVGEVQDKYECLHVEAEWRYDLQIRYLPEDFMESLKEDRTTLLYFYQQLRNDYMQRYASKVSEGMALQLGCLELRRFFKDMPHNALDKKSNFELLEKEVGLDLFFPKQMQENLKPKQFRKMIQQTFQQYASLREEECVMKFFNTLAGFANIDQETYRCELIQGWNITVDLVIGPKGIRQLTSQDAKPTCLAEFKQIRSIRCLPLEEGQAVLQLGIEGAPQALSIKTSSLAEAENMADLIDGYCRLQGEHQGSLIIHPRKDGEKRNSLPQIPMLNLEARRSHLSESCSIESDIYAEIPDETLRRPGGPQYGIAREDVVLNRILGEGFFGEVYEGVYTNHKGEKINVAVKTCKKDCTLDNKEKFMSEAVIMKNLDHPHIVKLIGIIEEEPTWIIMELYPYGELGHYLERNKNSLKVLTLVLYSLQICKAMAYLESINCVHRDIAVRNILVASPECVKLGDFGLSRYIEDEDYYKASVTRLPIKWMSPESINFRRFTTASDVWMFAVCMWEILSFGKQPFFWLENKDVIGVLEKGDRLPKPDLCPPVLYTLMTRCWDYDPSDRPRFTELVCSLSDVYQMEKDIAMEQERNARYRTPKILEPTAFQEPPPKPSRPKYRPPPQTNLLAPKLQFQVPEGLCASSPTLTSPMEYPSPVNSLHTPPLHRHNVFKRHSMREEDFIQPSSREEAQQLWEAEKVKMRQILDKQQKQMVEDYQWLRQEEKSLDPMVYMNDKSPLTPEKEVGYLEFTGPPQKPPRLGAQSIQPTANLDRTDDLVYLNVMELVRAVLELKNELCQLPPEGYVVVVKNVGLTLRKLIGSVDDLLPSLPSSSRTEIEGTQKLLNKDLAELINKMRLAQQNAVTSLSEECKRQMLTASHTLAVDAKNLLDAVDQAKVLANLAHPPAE
UniProt P07949, whole entry, looked up: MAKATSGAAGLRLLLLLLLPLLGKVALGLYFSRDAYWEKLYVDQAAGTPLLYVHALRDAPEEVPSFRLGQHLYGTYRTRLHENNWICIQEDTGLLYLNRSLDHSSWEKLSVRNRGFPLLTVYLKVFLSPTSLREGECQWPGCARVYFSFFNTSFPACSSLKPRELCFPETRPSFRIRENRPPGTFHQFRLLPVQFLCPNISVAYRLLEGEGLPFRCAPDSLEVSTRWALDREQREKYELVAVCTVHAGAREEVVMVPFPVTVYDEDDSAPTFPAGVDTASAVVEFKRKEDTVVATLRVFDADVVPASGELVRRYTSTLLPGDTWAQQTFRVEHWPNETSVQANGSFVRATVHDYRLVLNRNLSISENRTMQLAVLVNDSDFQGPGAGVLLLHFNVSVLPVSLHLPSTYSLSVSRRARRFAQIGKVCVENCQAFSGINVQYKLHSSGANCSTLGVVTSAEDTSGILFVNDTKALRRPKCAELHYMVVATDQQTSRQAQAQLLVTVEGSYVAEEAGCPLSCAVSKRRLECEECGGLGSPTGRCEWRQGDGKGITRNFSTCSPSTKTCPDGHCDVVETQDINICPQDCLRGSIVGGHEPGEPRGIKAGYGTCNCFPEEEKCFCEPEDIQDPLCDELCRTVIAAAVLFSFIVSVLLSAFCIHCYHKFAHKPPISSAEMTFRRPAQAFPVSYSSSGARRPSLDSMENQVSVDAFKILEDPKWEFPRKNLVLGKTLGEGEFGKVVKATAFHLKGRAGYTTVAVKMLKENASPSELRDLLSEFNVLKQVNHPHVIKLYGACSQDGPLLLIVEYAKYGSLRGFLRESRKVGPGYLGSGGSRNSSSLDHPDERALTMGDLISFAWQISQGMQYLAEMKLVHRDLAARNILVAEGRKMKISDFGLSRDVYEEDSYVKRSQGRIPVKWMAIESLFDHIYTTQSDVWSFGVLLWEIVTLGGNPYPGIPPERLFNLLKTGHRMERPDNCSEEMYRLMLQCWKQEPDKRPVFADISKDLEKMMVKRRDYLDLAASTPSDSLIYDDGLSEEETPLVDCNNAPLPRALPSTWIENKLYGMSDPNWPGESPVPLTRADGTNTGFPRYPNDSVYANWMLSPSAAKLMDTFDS
UniProt P07949, whole entry M918T, looked up: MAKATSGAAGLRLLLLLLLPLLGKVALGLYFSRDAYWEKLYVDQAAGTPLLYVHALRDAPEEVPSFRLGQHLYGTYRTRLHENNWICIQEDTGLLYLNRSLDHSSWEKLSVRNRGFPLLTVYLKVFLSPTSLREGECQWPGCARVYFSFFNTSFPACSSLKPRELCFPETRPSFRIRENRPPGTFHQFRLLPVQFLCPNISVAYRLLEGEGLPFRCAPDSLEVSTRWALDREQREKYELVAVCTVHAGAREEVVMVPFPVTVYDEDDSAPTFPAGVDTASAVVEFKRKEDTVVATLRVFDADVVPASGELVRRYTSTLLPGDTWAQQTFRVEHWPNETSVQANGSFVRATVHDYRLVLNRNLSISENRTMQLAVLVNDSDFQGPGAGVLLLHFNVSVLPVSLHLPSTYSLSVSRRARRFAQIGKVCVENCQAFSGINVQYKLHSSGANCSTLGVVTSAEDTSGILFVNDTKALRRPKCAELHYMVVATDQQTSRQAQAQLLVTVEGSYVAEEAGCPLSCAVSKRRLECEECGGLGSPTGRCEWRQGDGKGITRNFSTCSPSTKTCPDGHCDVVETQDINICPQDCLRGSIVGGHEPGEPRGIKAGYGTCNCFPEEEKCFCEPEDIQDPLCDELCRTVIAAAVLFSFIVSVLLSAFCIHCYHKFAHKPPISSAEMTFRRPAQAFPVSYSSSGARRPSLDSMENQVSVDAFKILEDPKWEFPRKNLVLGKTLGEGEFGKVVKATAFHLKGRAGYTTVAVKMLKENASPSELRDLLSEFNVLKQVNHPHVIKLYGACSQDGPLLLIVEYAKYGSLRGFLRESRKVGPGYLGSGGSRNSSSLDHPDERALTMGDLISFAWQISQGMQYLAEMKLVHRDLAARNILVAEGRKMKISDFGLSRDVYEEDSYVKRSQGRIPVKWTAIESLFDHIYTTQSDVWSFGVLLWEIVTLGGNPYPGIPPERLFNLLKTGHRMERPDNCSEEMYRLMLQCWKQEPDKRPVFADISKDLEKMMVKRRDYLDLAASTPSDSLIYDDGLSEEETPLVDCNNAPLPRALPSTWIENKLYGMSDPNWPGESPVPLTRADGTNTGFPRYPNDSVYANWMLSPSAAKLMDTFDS
UniProt Q9BRS2: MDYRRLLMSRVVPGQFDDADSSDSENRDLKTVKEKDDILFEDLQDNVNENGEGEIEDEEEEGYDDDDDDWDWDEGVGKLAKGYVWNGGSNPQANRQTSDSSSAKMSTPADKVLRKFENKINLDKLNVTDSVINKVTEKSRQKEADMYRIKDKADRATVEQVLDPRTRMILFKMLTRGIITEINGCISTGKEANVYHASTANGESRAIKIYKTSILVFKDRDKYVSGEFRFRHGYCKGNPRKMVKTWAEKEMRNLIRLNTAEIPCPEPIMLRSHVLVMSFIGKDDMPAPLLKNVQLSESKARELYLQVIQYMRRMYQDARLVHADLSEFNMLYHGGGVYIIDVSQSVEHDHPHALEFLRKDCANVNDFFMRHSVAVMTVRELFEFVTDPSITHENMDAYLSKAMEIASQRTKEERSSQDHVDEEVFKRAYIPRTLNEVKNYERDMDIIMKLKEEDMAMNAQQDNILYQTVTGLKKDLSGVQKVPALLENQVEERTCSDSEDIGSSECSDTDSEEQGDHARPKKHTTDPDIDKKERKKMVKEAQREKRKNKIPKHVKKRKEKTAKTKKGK

Tests used:
Test in all cases: kinase-Nluc reporter destabilization hit call (1 = scored as downregulated) (binary); higher = compound decreases kinase abundance
Settings in all cases: K562; 2-18 h
[1] = target: PDPK1 (UniProt O15530)
[2] = target: PIK4CA (UniProt P42356)
[3] = target: PIK4CB (UniProt Q9UBF8)
[4] = target: PLK1 (UniProt P53350)
[5] = target: PRKAA1 (UniProt Q13131)
[6] = target: PRKCA (UniProt P17252)
[7] = target: PTK2 (UniProt Q05397)
[8] = target: PTK2B (UniProt Q14289)
[9] = target: RAF1 (UniProt P04049)
[10] = target: RAF1_S257L (clone: RAF1_mut) (UniProt P04049)
[11] = target: RET (UniProt P07949)
[12] = target: RET_M918T (clone: RET_mut) (UniProt P07949)
[13] = target: RIOK1 (UniProt Q9BRS2)
[14] = target: RIPK1 (UniProt Q13546)
[15] = target: RIPK2 (UniProt O43353)
[16] = target: ROR2 (UniProt Q01974)
[17] = target: RPS6KA1 (UniProt Q15418)
[18] = target: SPHK1 (UniProt Q9NYA1)
[19] = target: SRC (UniProt P12931)
[20] = target: STK24 (UniProt Q9Y6E0)

Measured: kinase-Nluc reporter destabilization hit call

Brc1c(Br)c(Br)c2n[nH]nc2c1Br (10 µM)
inactive: [1] 0 | [2] 0 | [3] 0 | [4] 0 | [5] 0 | [6] 0 | [7] 0 | [8] 0 | [9] 0 | [10] 0 | [11] 0 | [12] 0 | [13] 0 | [14] 0 | [15] 0 | [16] 0 | [17] 0 | [18] 0 | [19] 0 | [20] 0

COc1cc(OC)cc(N(CCNC(C)C)c2ccc3ncc(-c4cnn(C)c4)nc3c2)c1 [Erdafitinib] (2.5 µM)
inactive: [1] 0 | [2] 0 | [3] 0 | [4] 0 | [5] 0 | [6] 0 | [7] 0 | [8] 0 | [9] 0 | [11] 0 | [12] 0 | [13] 0 | [14] 0 | [15] 0 | [16] 0 | [17] 0 | [18] 0 | [19] 0 | [20] 0
active: [10] 1

COc1ccc2c(NC(=O)Nc3cccc(C(F)(F)F)n3)ccnc2c1 (10 µM)
inactive: [1] 0 | [2] 0 | [3] 0 | [4] 0 | [5] 0 | [6] 0 | [7] 0 | [8] 0 | [9] 0 | [10] 0 | [11] 0 | [12] 0 | [13] 0 | [14] 0 | [15] 0 | [16] 0 | [17] 0 | [18] 0 | [19] 0 | [20] 0

CCC(=O)N1CCN(c2ccc(-n3c(=O)ccc4cnc5ccc(-c6cnc7ccccc7c6)cc5c43)cc2C(F)(F)F)CC1 [Torin 1] (2 µM)
inactive: [1] 0 | [2] 0 | [3] 0 | [4] 0 | [5] 0 | [6] 0 | [7] 0 | [8] 0 | [9] 0 | [10] 0 | [11] 0 | [12] 0 | [13] 0 | [14] 0 | [15] 0 | [16] 0 | [17] 0 | [18] 0 | [19] 0 | [20] 0

O=C(c1ccc(-c2ccc(Cl)cc2)o1)N(Cc1ccccn1)c1ccc(N2CCNCC2)cc1 [MK2-IN-1 (hydrochloride)] (10 µM)
inactive: [1] 0 | [2] 0 | [3] 0 | [4] 0 | [5] 0 | [6] 0 | [7] 0 | [8] 0 | [9] 0 | [10] 0 | [11] 0 | [12] 0 | [13] 0 | [14] 0 | [15] 0 | [16] 0 | [17] 0 | [18] 0 | [19] 0 | [20] 0

COc1cc2ncn(-c3cc(OCc4ccccc4C(F)(F)F)c(C(N)=O)s3)c2cc1OC (10 µM)
inactive: [1] 0 | [2] 0 | [3] 0 | [4] 0 | [5] 0 | [6] 0 | [8] 0 | [9] 0 | [10] 0 | [11] 0 | [12] 0 | [13] 0 | [14] 0 | [15] 0 | [16] 0 | [17] 0 | [18] 0 | [19] 0 | [20] 0
active: [7] 1

Random excerpt: 2 compounds from above
O=C(c1ccc(-c2ccc(Cl)cc2)o1)N(Cc1ccccn1)c1ccc(N2CCNCC2)cc1 [MK2-IN-1 (hydrochloride)] (10 µM)
inactive: [1] 0 | [2] 0 | [3] 0 | [4] 0 | [5] 0 | [6] 0 | [7] 0 | [8] 0 | [9] 0 | [10] 0 | [11] 0 | [12] 0 | [13] 0 | [14] 0 | [15] 0 | [16] 0 | [17] 0 | [18] 0 | [19] 0 | [20] 0

COc1cc2ncn(-c3cc(OCc4ccccc4C(F)(F)F)c(C(N)=O)s3)c2cc1OC (10 µM)
inactive: [1] 0 | [2] 0 | [3] 0 | [4] 0 | [5] 0 | [6] 0 | [8] 0 | [9] 0 | [10] 0 | [11] 0 | [12] 0 | [13] 0 | [14] 0 | [15] 0 | [16] 0 | [17] 0 | [18] 0 | [19] 0 | [20] 0
active: [7] 1

Additional records

CCCCOc1c(C(=O)c2c(F)cc(C)cc2F)c[nH]c2nncc1-2 (10 µM)
inactive: [1] 0 | [2] 0 | [3] 0 | [4] 0 | [5] 0 | [6] 0 | [7] 0 | [8] 0 | [9] 0 | [10] 0 | [11] 0 | [12] 0 | [13] 0 | [14] 0 | [15] 0 | [16] 0 | [17] 0 | [18] 0 | [19] 0 | [20] 0

Cc1ccc2c(Nc3ccc(Cl)cc3)nccc2c1Nc1ncccc1-c1ncnc2nc[nH]c12 [Raf inhibitor 1] (2.5 µM)
inactive: [1] 0 | [2] 0 | [3] 0 | [4] 0 | [5] 0 | [6] 0 | [7] 0 | [8] 0 | [9] 0 | [10] 0 | [11] 0 | [12] 0 | [13] 0 | [14] 0 | [15] 0 | [16] 0 | [17] 0 | [18] 0 | [19] 0 | [20] 0

Cn1nc(C(C)(C)C)cc1NC(=O)Nc1ccc(Oc2ccncc2)cc1 (10 µM)
inactive: [1] 0 | [2] 0 | [3] 0 | [4] 0 | [5] 0 | [6] 0 | [7] 0 | [8] 0 | [9] 0 | [10] 0 | [11] 0 | [12] 0 | [13] 0 | [14] 0 | [15] 0 | [16] 0 | [17] 0 | [18] 0 | [19] 0 | [20] 0

C=CC(=O)Nc1ccc2ncnc(Nc3cccc(Br)c3)c2c1 (10 µM)
inactive: [1] 0 | [2] 0 | [3] 0 | [4] 0 | [5] 0 | [6] 0 | [7] 0 | [8] 0 | [9] 0 | [10] 0 | [11] 0 | [12] 0 | [13] 0 | [14] 0 | [15] 0 | [16] 0 | [17] 0 | [18] 0 | [19] 0 | [20] 0

CC(C)=CC/C=C(\C)[C@H]1CC[C@]2(C)[C@@H]1[C@H](O)C[C@@H]1[C@@]3(C)CC[C@H](O[C@@H]4O[C@H](CO)[C@@H](O)[C@H](O)[C@H]4O[C@@H]4O[C@H](CO)[C@@H](O)[C@H](O)[C@H]4O)C(C)(C)[C@@H]3CC[C@]12C [Ginsenoside Rg5] (10 µM)
inactive: [1] 0 | [2] 0 | [3] 0 | [4] 0 | [5] 0 | [6] 0 | [7] 0 | [8] 0 | [9] 0 | [10] 0 | [11] 0 | [12] 0 | [13] 0 | [14] 0 | [15] 0 | [16] 0 | [17] 0 | [18] 0 | [19] 0 | [20] 0

CCCn1cnc2c(NCc3ccccc3)nc(NC(CC)CO)nc21 (stereo not given) [Ca2+ channel agonist 1] (2.5 µM)
inactive: [1] 0 | [2] 0 | [3] 0 | [4] 0 | [5] 0 | [6] 0 | [7] 0 | [8] 0 | [9] 0 | [10] 0 | [11] 0 | [12] 0 | [13] 0 | [14] 0 | [15] 0 | [16] 0 | [17] 0 | [18] 0 | [19] 0 | [20] 0

O=C(Nc1cc(C(F)(F)F)ccc1N1CCN(Cc2ccccn2)CC1)c1ccc(-c2ccncc2)o1 (10 µM)
inactive: [1] 0 | [2] 0 | [3] 0 | [4] 0 | [5] 0 | [6] 0 | [7] 0 | [8] 0 | [9] 0 | [10] 0 | [11] 0 | [12] 0 | [13] 0 | [14] 0 | [15] 0 | [16] 0 | [17] 0 | [18] 0 | [19] 0 | [20] 0

O=c1c(O)c(-c2ccc(O)c(O)c2)oc2cc(O)cc(O)c12 [Quercetin (dihydrate)] (10 µM)
inactive: [1] 0 | [2] 0 | [3] 0 | [4] 0 | [5] 0 | [6] 0 | [7] 0 | [8] 0 | [9] 0 | [10] 0 | [11] 0 | [12] 0 | [13] 0 | [14] 0 | [15] 0 | [16] 0 | [17] 0 | [18] 0 | [19] 0 | [20] 0

N#C/C(=C\c1ccc(O)c(O)c1)C(=O)NCCCc1ccccc1 (10 µM)
inactive: [1] 0 | [2] 0 | [3] 0 | [4] 0 | [5] 0 | [6] 0 | [7] 0 | [8] 0 | [9] 0 | [11] 0 | [12] 0 | [13] 0 | [14] 0 | [15] 0 | [16] 0 | [17] 0 | [18] 0 | [19] 0 | [20] 0
active: [10] 1

O=C1NCCc2[nH]c(-c3ccnc(-c4cnc5ccccc5c4)c3)cc21 (10 µM)
inactive: [1] 0 | [2] 0 | [3] 0 | [4] 0 | [5] 0 | [6] 0 | [7] 0 | [8] 0 | [9] 0 | [10] 0 | [11] 0 | [12] 0 | [13] 0 | [14] 0 | [15] 0 | [16] 0 | [17] 0 | [18] 0 | [19] 0 | [20] 0

C=CC(=O)N[C@H]1COC[C@H]1Nc1ncc2cc(-c3c(Cl)c(OC)cc(OC)c3Cl)c(=O)n(C)c2n1 (10 µM)
inactive: [1] 0 | [2] 0 | [3] 0 | [4] 0 | [5] 0 | [6] 0 | [7] 0 | [8] 0 | [9] 0 | [10] 0 | [11] 0 | [12] 0 | [13] 0 | [14] 0 | [15] 0 | [16] 0 | [17] 0 | [18] 0 | [19] 0 | [20] 0

O=S(=O)(NCCNC/C=C/c1ccc(Br)cc1)c1cccc2cnccc12 [H-89 (dihydrochloride)] (10 µM)
inactive: [1] 0 | [2] 0 | [3] 0 | [4] 0 | [5] 0 | [6] 0 | [7] 0 | [8] 0 | [9] 0 | [10] 0 | [11] 0 | [12] 0 | [13] 0 | [14] 0 | [15] 0 | [16] 0 | [17] 0 | [18] 0 | [19] 0 | [20] 0
